The values are deposited in ChEMBL (CHEMBL3988442, “University of Dundee, Small-Polar-MMV Screening Library” (2021)).

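Growth of Mycobacterium tuberculosis over 3 days (7H9 medium with glucose and tyloxapol); the read-out is not stated. Tested at 50 µM. Direction is inferred from retests: higher values go with more growth inhibition. About 69,000 compounds were tested under these conditions; 1.1% (about 760) showed 50% or more at least once.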

Values are the deposited “Percent Effect”, in %.
How 0% and 100% were set is not recorded. Most values in the screen are low, and negative values occur.
This is an unselected part of the compounds tested.
Two or more numbers in one place are separate tests of the same structure; such repeats can differ widely.

Compound	effect
COc1cc(C(C)=O)ccc1OCC(=O)N(CC(C)C#N)C1CC1 (stereo not given)	-27.96%
O=C(NCc1cccc(N2CC=CC2)c1)NC1CC1	-15.06%
CCc1cccc(N2CCC(NC(=O)CCNC(N)=O)CC2)c1	8.469%
CSC(C)C(=O)N(C)CCCc1cc(-c2ccccc2)no1 (stereo not given)	-7.87%
COc1cc(-n2cccc2)c(Cl)cc1C(=O)NS(C)(=O)=O	-10.07%
CCc1noc(C)c1C(=O)NCCCC(CC)(CC)C1OCCO1	-6.993% and -23.35%
Cc1ccc(-c2cc(CNC(=O)N3CCC(N(C)C)CC3)on2)cc1	-26.98% and 2.088%
[H][C@@]12CCCN1CCCN(C(=O)c1cnc(-c3ccc(C)cc3)nc1O)C2	-2.281% and -4.074%
COc1cncc(N2CCN(Cc3ccncc3Cl)CC2)n1	1.974%
Cc1noc(-c2ccc(N3CCCC(C(N)=O)C3)nc2)n1 (stereo not given)	5.809%
COc1cccc(-n2nnc(C(=O)N3CCC(C(N)=O)CC3)c2C)c1	-21.85%
Cc1ccccc1OCCCC(=O)N1CCCC(n2cncn2)C1 (stereo not given)	8.915%
CNS(=O)(=O)c1cccc(CNc2nccc(C(F)(F)F)n2)c1	-24.14%
CCn1c(C(=O)N2CCN(C(=O)COC)CC2)cc2ccccc21	21.99%
COCC(=O)N1CCc2[nH]c(=O)ccc2C1	5.368%
CC(C)CNC(=O)c1c(-n2cnnn2)sc2c1CCC2	-17.82% and -0.753%
C[C@@H]1CC[C@@H](C)N1C(=O)c1cc(COc2ccccc2)[nH]n1	27.9% and 20.62%
COc1ccc(Oc2cccc(C#N)n2)cc1CN1CCCC1	22.27%
Cc1nnc2n1CCN(C(C(=O)NC1CC1)c1ccccc1)C2 (stereo not given)	-20.83%
CC(C)Oc1ncccc1CNC(=O)c1cnccn1	-8.963%
CCC(O)CN1CCN(C(=O)c2cnc3n[nH]c(C)c3c2)CC1 (stereo not given)	-36.64%
Cl.Cn1nc(C2CCN(C(=O)CN3CCCCC3)CC2)c2cccnc21	26.59%
CCC(CC)(CC)NC(=O)Nc1nnc(-c2ccccn2)s1	17.2%
CNc1cc2c(nn1)CCN(C(=O)c1ccoc1)C2	-11.66%
COc1ccsc1C(=O)Nc1cc(Cl)c(=O)n(C)c1	13.11%
Cc1ccc(-n2cc(C)cn2)c(NC(=O)NC2(C)CCOC2)c1 (stereo not given)	18.29%
CC(Cn1cccn1)NC(=O)C1=Cc2ccccc2OC1 (stereo not given)	-0.8495%
CCOCCC(=O)NCC1COc2c(cccc2OC)C1 (stereo not given)	3.336% and -15.55%
CC(C)(O)CN1CCN(C(=O)c2cccn2Cc2cccnc2)CC1	-8.502%
[H][C@@]12CCN(C[C@@H]1CN1CCc3ccccc31)[C@@H](CNC(=O)COC)C2	6.779% and 11.46%
CC(C)CN1CCc2[nH]cnc2C12CCN(C(=O)c1cc[nH]n1)CC2	-13.8%
CCn1nnc(NCc2cc(Br)cc(Br)c2OC)n1	38.15%
CCc1cnc(C)nc1NCCN1CCOCC1	-18.39% and 12.12%
O=C(c1sccc1Br)N(Cc1cccnc1)C1CC1	-1.136%
COc1ccc(CNC(=O)NC2CCN(CC(F)F)CC2)cc1C	-8.04%
CN(Cc1nncn1-c1cccc(C(F)(F)F)c1)S(C)(=O)=O	4.064%
CN1CC[C@]2(CN(CC3CCOC3)C[C@H]2c2ccccc2)C1=O.O=C(O)C(F)(F)F (stereo not given in full)	-16.07%
Cc1cnn(CC2CN(CCS(C)(=O)=O)CCO2)c1 (stereo not given)	-5.455%
CC(C)NC(=O)C1CN(Cc2ccc(F)cc2)CC12CCOCC2.O=C(O)C(F)(F)F (stereo not given)	16.82%
Cc1ccc(S(=O)(=O)NC2CNC(=O)C2)cc1C (stereo not given)	31.08% and -2.223%
O=C1NCC2CN(Cc3ccccc3OCc3ccccn3)CCN12 (stereo not given)	0.225% and 3.877%
Cc1ccc(C(C)(O)CNC(=O)c2sccc2OC(F)F)o1 (stereo not given)	13.1%
O=C(O)C(F)(F)F.[H][C@@]12COC[C@]1(CN1CCOCC1)CN(S(=O)(=O)c1ccccc1)C2	-3.413% and -5.78%
O=C(O)C(F)(F)F.O=C1CCCN1Cc1nnn2c1CN(c1cccnc1)CCC2	5.55%
O=C(O)C(F)(F)F.O=C(O)C(F)(F)F.c1cc(CN2CCCn3cnc(COCC4CC4)c3C2)ccn1	21.7% and 19.09%
c1ccc2nc(N3CCOC(Cn4cncn4)C3)cnc2c1 (stereo not given)	-9.949%
CN(Cc1ccc(-n2ccnc2)cc1)Cc1ncc[nH]1	6.239%
CCOc1ccc(C#N)cc1NC(=O)N1CCC(n2cncn2)CC1	-1.569%
CCc1ccc(CN2CCN(c3ccc(C#N)cc3)C(=O)C2)nc1	1.86% and -4.019%
CN(C1CCN(c2ccccn2)CC1)S(=O)(=O)c1ccc(F)cc1	41.16%
CN1CCN(c2cc(CNCc3cccc4c3OCO4)ccn2)CC1	4.836%
COc1ccc(NC(=O)C(c2cccc(F)c2)N2CCOCC2)cc1 (stereo not given)	-2.01% and -8.134%
CN(Cc1nc(Cc2cccc(C(F)(F)F)c2)no1)C1CCOCC1	14.39% and 21.78%
O=C(O)C(F)(F)F.[H][C@@]12CCN(Cc3cnn(C)c3)[C@]1([H])CC[C@@H](C(=O)Nc1cnccn1)O2	-6.362%
O=C(NS(=O)(=O)c1ccccc1)c1ccccc1F	13.82%
Cc1cccc(COCC2c3nnn(C)c3CCN2Cc2ccoc2)n1.O=C(O)C(F)(F)F.O=C(O)C(F)(F)F (stereo not given)	1.768% and 9.871%
CN(C)[C@@H]1CCN(c2ncccn2)[C@H]1Cc1cccnc1.O=C(O)C(F)(F)F.O=C(O)C(F)(F)F	-11.72% and -5.349%
CCN(CC)CCc1nc2c([nH]1)CC(c1ccc(Cl)cc1)CNC2=O (stereo not given)	-13.55%
CN(Cc1n[nH]c2c1CCC2)C(=O)c1cc(-c2cccn2C)n[nH]1	-1.71%
CN(C)c1cncc(C2CCN(CCO)CC2)n1	2.369%
O=C(Cc1cc(-c2ccc3c(c2)OCCO3)on1)NCc1ccccn1	-32.27%
CCOc1ccccc1NC(=O)NCc1ccoc1	21.64%
CCn1c(C)nnc1SCCn1cc(-c2ncc[nH]2)nn1	-16.5%
COc1ccccc1N1CCN(Cc2ncc(C)c(OC)c2C)CC1=O	-23.58%
CC(=O)N1CCC(n2nccc2-c2cnc(N)nc2)CC1	34.77%
O=C(O)C(F)(F)F.[H][C@@]12CCN(C3CCC3)C[C@]1(COc1nccc(C)n1)CCO2	-45.5%
CN(Cc1ccccc1)C(=O)CSc1ccc2c(c1)OCCO2	15.16%
Cc1nc(C)c(CNC(=O)N2CCc3ccccc3C2CO)s1 (stereo not given)	14.94%
CN(C)C(=O)Cc1nc(CN2CCCC2Cn2cncn2)cs1 (stereo not given)	14.84%
CS(=O)(=O)N1CCc2sc(C(=O)NCCc3ccccn3)cc21	14.64%
COc1cc(CN2CCCC23CCN(c2ccccn2)CC3)ccc1F	16.94%
Cc1nc(C)c(C(=O)Nc2cccc(CN3CCC(CO)CC3)c2)o1	3.383%
Cc1csc(CN2CCC[C@]3(C[C@H](OCC4CC4)CO3)C2)n1	29.43%
Cc1n[nH]c(C)c1-c1nccnc1CC1CCNC1 (stereo not given)	-13.34%
NC(=O)c1ccc(S(=O)(=O)NC2CCN(Cc3ccccc3)C2=O)cc1 (stereo not given)	-5.829%
Cc1nn(C)c(N(C)C)c1CNCCS(C)(=O)=O	-34.18%
CNS(=O)(=O)CCCN1CCCC1c1noc(C)n1 (stereo not given)	-17.66%
Cc1ccc(C(=O)N2CCC(Oc3cccc(C)c3C)CC2)c(=O)[nH]1	6.717%
Cn1cnc(S(=O)(=O)N2CCCC2c2ccnc3nccn23)c1 (stereo not given)	-12.68%
Cn1cnc2c1CCN(CCCOc1ccc(C#N)cc1)C2	-3.483%
O=C(O)C(F)(F)F.O=C(O)C(F)(F)F.c1cc(CN2CCc3ncnc(C4CCOC4)c3CC2)ccn1 (stereo not given)	-5.9% and -3.165%
Cc1nnc(Nc2cccc(C3CCN(Cc4ncc[nH]4)CC3)n2)s1	-32.35%
COCC(=O)N1CC[C@@H](O)[C@@H]1Cc1ccccc1	-28.91%
CC(C)C(NC(=O)NCCNc1ccccn1)c1cccs1 (stereo not given)	-6.471%
CC(C)(C)n1nnnc1CN(Cc1ccccc1)Cc1ccc(Cl)cc1	15.11%
COc1ccc(CCC(=O)NC2CCC(O)CC2)cc1OC (stereo not given)	9.564%
Cc1ccccc1CCNC(=O)N1CCCC(c2nncn2C)C1 (stereo not given)	-12.11%
Cc1ccc(SCCN(C)C(=O)c2cn(CCN)nn2)cc1	-34.19%
CCNC(=O)CN1CCC(OCC2CCCO2)CC1 (stereo not given)	16.88%
CCOCc1ncn2c1CN(S(=O)(=O)c1ccc(F)cc1)CC2	-24% and -7.708%
O=C(c1cc2ccccc2[nH]c1=O)N1CCC2(CCCNC2)C1 (stereo not given)	18.17%
Cn1cnc2c1CCN(Cc1nc(Cc3ccccc3)no1)C2	39.89%
C/N=C1\c2cc3cc(OC)ccc3n2CCN1Cc1ccccc1.O=C(O)C(F)(F)F	7.107%
O=C(CS(=O)(=O)Cc1ccc(Br)cc1F)Nc1cn[nH]c1	-22.19% and -2.513%
CCn1cc(CN2CCc3nc(-c4ccccn4)nc(O)c3C2)cn1	-8.302%

Once more, the final 8:

Compound,effect
Cc1ccc(SCCN(C)C(=O)c2cn(CCN)nn2)cc1,-34.19%
CCNC(=O)CN1CCC(OCC2CCCO2)CC1 (stereo not given),16.88%
CCOCc1ncn2c1CN(S(=O)(=O)c1ccc(F)cc1)CC2,-24% and -7.708%
O=C(c1cc2ccccc2[nH]c1=O)N1CCC2(CCCNC2)C1 (stereo not given),18.17%
Cn1cnc2c1CCN(Cc1nc(Cc3ccccc3)no1)C2,39.89%
C/N=C1\c2cc3cc(OC)ccc3n2CCN1Cc1ccccc1.O=C(O)C(F)(F)F,7.107%
O=C(CS(=O)(=O)Cc1ccc(Br)cc1F)Nc1cn[nH]c1,-22.19% and -2.513%
CCn1cc(CN2CCc3nc(-c4ccccn4)nc(O)c3C2)cn1,-8.302%